PubChem BioAssay AID1224826 | NIAID – 2016

Assay: 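Knock-downs that raise or lower Tnf reporter signal after endotoxin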 (primary screen)
Cell system: RAW264.7 G9 macrophages from mouse bearing reporters for p65 (GFP) and the Tnf promoter (mCherry)
Knock-down reagent: siRNA pool against mouse genes, 100 nM
Timing: 16 h of LPS stimulation, after 2 days of siRNA transfection
Challenge: bacterial lipopolysaccharide (Salmonella minnesota R595), 10 ng/ml
Measured: 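Nuclear mCherry signal of the Tnf promoter reporter measured by imaging after background removal, scaled to each plate median and turned into robust z-scores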
Direction: Tnf reporter robust z-score: higher = stronger Tnf promoter reporter signal after LPS; Tnf reporter intensity: higher = stronger Tnf promoter reporter signal
Call rule: 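Called active when robust z-score is at most -1.3, matching the median of the Tlr4 knock-down control, or over 3; control wells and wells with under 50 cells never active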
Calls: active = Tnf reporter clearly lowered or raised; inactive = no clear change in Tnf reporter
The whole screen tested about 17,000 reagents; shown is a random part of them. Of all reagents, about 1,110 (6.6%) got an active call. 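Active means lowered or raised reporter signal; replicate intensities are raw and not normalised per plate.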 The numbers tell different reagents against one gene apart. No sequences are given here.

Target gene,pool no.,Tnf reporter robust z-score,fewer than 50 cells in well,"Tnf reporter intensity, replicate 1","Tnf reporter intensity, replicate 2",outcome
Fos,1,-1.08,enough cells in well,173,140,inactive
Nme7,1,-0.34,enough cells in well,162,154,inactive
Dpy19l1,1,0.31,enough cells in well,275,89,inactive
Chia1,1,1.75,enough cells in well,266,234,inactive
Irx6,1,-0.63,enough cells in well,133,116,inactive
Bicdl2,1,1.76,enough cells in well,159,264,inactive
Cdh16,1,-0.67,enough cells in well,185,166,inactive
Akr1c18,1,,fewer than 50 cells per well; well left out of calls,152,160,inactive
Stam2,1,-0.2,enough cells in well,238,219,inactive
Zdhhc17,1,-1.11,enough cells in well,178,87.1,inactive
Pcdhga1,1,0.34,enough cells in well,153,159,inactive
Dazap2,1,-0.39,enough cells in well,216,182,inactive
Hsd17b11,1,0.73,enough cells in well,258,288,inactive
Helz2,1,,fewer than 50 cells per well; well left out of calls,83.2,134,inactive
Clcn6,1,0.59,enough cells in well,214,188,inactive
H1f1,1,-0.05,enough cells in well,208,184,inactive
Or52e2,1,,fewer than 50 cells per well; well left out of calls,32.1,88.4,inactive
Dppa5a,1,1.58,enough cells in well,251,199,inactive
Ankk1,1,-0.63,enough cells in well,187,96.4,inactive
Naga,1,0.14,enough cells in well,233,251,inactive
Setd4,1,,fewer than 50 cells per well; well left out of calls,3.08,92.5,inactive
Fbxl20,1,,fewer than 50 cells per well; well left out of calls,85.7,96.7,inactive
Fbxl20,2,-0.42,enough cells in well,220,172,inactive
Ttf2,1,-0.62,enough cells in well,190,171,inactive
Sytl4,1,-0.94,enough cells in well,81.9,73.8,inactive
Slc38a1,1,,fewer than 50 cells per well; well left out of calls,38.9,30.1,inactive
Msantd1,1,-0.67,enough cells in well,121,132,inactive
Nat1,1,0.84,enough cells in well,377,231,inactive
Nsmce3,1,2.49,enough cells in well,336,240,inactive
Casq1,1,-0.6,enough cells in well,108,140,inactive
Sprr2h,1,1.86,enough cells in well,163,161,inactive
Trim3,1,,fewer than 50 cells per well; well left out of calls,190,176,inactive
Lcor,1,1.75,enough cells in well,282,212,inactive
Elmo3,1,-0.02,enough cells in well,217,93.5,inactive
Spata4,1,0.74,enough cells in well,120,129,inactive
Sil1,1,,fewer than 50 cells per well; well left out of calls,204,90,inactive
Hoxa4,1,-1.17,enough cells in well,128,127,inactive
Lce3c,1,0.14,enough cells in well,75.6,96.5,inactive
Meg3,1,1.55,enough cells in well,321,285,inactive
Ikzf1,1,-1.92,enough cells in well,45.2,42.6,active
Gapt,1,-0.24,enough cells in well,166,174,inactive
Sphkap,1,,fewer than 50 cells per well; well left out of calls,180,22.7,inactive
Hspe1,1,-1.01,enough cells in well,164,118,inactive
Crp,1,0.15,enough cells in well,163,218,inactive
Gsto2,1,0.61,enough cells in well,189,102,inactive
Npr3,1,1.21,enough cells in well,304,147,inactive
Ncald,1,0.61,enough cells in well,233,150,inactive
Or2z2,1,,fewer than 50 cells per well; well left out of calls,181,109,inactive
Snapc2,1,-0.31,enough cells in well,245,196,inactive
Cntn3,1,0.19,enough cells in well,141,234,inactive
Trpv5,1,-0.65,enough cells in well,191,166,inactive
Sftpd,1,-0.15,enough cells in well,242,224,inactive
Zfhx3,1,0.7,enough cells in well,181,198,inactive
Rcor3,1,-0.18,enough cells in well,114,126,inactive
Abcb6,1,0.84,enough cells in well,268,236,inactive
2810407A14Rik,1,,fewer than 50 cells per well; well left out of calls,312,75.6,inactive
B3galt2,1,-0.64,enough cells in well,125,138,inactive
Cables1,1,,fewer than 50 cells per well; well left out of calls,112,127,inactive
Rarres1,1,0.56,enough cells in well,345,259,inactive
Gtf3c5,1,-0.85,enough cells in well,176,174,inactive
Smpd3,1,1.23,enough cells in well,346,345,inactive
Mif4gd,1,,fewer than 50 cells per well; well left out of calls,120,35.8,inactive
Dpysl4,1,1.38,enough cells in well,273,168,inactive
Zeb2,1,-0.91,enough cells in well,170,146,inactive
Sh3bp5l,1,-0.7,enough cells in well,119,160,inactive
Ebp,1,1.17,enough cells in well,303,341,inactive
Or8g37,1,-0.89,enough cells in well,108,88.7,inactive
Vmn1r66,1,0.95,enough cells in well,161,115,inactive
Mnmip1,1,2.46,enough cells in well,480,116,inactive
Ccer1,1,,fewer than 50 cells per well; well left out of calls,128,0,inactive
Eola1,1,-0.23,enough cells in well,261,49.9,inactive
Ntpcr,1,,fewer than 50 cells per well; well left out of calls,43.8,0,inactive
Wnk2,1,-1.16,enough cells in well,127,92.4,inactive
Msantd2,1,-0.03,enough cells in well,142,277,inactive
4930578I06Rik,1,,fewer than 50 cells per well; well left out of calls,183,58.4,inactive

Targets listed so far whose gene name starts with N or n:
Target gene,pool no.,Tnf reporter robust z-score,fewer than 50 cells in well,"Tnf reporter intensity, replicate 1","Tnf reporter intensity, replicate 2",outcome
Nme7,1,-0.34,enough cells in well,162,154,inactive
Naga,1,0.14,enough cells in well,233,251,inactive
Nat1,1,0.84,enough cells in well,377,231,inactive
Nsmce3,1,2.49,enough cells in well,336,240,inactive
Npr3,1,1.21,enough cells in well,304,147,inactive
Ncald,1,0.61,enough cells in well,233,150,inactive
Ntpcr,1,,fewer than 50 cells per well; well left out of calls,43.8,0,inactive
